According to publication PMC11358521:
These are yes or no findings as the source states them, for the method shown. Binding seen in cells or lysates may run through a third protein. Here binding means that the protein was enriched with, or labelled near, the bait; the list need not be complete. For some of these results: No binding means not detected with the bait. Sequences can lack the tags named with a protein. Blank lines part the entries; values can stand above or below the binder they belong to.

Tests used:
[1] = target: T1, heterogeneous nuclear ribonucleoprotein R (hnRNP R) (mouse (endogenous in primary motoneurons)) (UniProt Q8VHM5); assay: affinity purification with mass spectrometry; somatodendritic compartment lysate of motoneurons in microfluidic chambers; anti-hnRNP R (Abcam ab30930) or anti-Ogt (Proteintech 11576-2-AP) on Dynabeads Protein A, against no-antibody control; overnight at 4 °C
T1 sequence: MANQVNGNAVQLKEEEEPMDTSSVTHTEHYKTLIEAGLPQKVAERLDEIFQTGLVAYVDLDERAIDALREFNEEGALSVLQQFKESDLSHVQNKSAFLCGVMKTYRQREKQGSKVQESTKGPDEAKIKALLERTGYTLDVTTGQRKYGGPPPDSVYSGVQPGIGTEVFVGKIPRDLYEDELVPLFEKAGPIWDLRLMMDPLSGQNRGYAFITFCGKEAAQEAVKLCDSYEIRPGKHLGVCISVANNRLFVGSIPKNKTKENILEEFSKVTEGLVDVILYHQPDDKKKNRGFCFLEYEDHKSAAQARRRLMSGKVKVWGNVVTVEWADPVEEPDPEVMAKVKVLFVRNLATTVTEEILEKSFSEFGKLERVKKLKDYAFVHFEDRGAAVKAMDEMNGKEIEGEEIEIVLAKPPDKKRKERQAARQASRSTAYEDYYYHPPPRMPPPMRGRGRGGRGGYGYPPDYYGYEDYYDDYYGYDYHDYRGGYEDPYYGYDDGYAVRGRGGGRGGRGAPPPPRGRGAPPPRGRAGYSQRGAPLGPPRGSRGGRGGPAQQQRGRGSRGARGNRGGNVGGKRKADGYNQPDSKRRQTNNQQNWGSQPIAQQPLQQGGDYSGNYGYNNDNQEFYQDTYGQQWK

[2] = target: T1, heterogeneous nuclear ribonucleoprotein R (hnRNP R) (mouse (endogenous in primary motoneurons)); assay: affinity purification with mass spectrometry; axonal compartment lysate of motoneurons in microfluidic chambers; anti-hnRNP R (Abcam ab30930) or anti-Ogt (Proteintech 11576-2-AP) on Dynabeads Protein A, against no-antibody control; overnight at 4 °C
[3] = target: T2, O-linked β-N-acetylglucosamine (O-GlcNAc) transferase (Ogt) (mouse (endogenous in primary motoneurons)) (UniProt Q8CGY8); assay: affinity purification with mass spectrometry; somatodendritic compartment lysate of motoneurons in microfluidic chambers; anti-hnRNP R (Abcam ab30930) or anti-Ogt (Proteintech 11576-2-AP) on Dynabeads Protein A, against no-antibody control; overnight at 4 °C
T2 sequence: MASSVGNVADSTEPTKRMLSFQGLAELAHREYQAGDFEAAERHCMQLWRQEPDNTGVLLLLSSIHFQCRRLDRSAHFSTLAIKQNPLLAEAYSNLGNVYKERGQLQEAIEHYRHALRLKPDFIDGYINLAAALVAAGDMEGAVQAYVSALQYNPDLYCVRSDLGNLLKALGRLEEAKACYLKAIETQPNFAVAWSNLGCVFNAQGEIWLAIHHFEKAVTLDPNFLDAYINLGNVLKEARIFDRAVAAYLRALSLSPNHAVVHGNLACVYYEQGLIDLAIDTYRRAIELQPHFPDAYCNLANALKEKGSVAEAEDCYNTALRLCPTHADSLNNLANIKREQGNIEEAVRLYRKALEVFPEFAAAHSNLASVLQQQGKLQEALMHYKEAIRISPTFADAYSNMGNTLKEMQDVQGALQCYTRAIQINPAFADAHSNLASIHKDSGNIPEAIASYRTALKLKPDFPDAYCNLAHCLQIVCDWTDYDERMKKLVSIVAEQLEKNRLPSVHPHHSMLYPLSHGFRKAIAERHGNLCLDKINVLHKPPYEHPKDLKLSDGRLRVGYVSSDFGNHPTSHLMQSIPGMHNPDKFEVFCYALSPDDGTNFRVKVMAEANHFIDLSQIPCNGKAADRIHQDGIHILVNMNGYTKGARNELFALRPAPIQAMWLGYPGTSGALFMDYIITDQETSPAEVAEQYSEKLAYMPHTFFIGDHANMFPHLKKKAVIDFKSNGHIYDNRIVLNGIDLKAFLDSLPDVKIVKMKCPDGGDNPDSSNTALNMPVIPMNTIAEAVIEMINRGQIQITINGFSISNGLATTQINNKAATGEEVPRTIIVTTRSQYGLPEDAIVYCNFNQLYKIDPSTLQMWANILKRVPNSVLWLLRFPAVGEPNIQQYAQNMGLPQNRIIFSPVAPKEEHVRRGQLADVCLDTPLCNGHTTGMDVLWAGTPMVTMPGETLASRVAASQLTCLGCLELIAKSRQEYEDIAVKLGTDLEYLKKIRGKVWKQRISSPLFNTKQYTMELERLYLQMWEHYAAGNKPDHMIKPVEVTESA

[4] = target: T2, O-linked β-N-acetylglucosamine (O-GlcNAc) transferase (Ogt) (mouse (endogenous in primary motoneurons)); assay: affinity purification with mass spectrometry; axonal compartment lysate of motoneurons in microfluidic chambers; anti-hnRNP R (Abcam ab30930) or anti-Ogt (Proteintech 11576-2-AP) on Dynabeads Protein A, against no-antibody control; overnight at 4 °C

- binding [2]: binds
B1: O-linked β-N-acetylglucosamine (O-GlcNAc) transferase (Ogt) (enzyme, UniProt Q8CGY8 1-1046)
chain: T2 sequence
- binding [1]: no binding (only somatodendritic compartment lysate)

- binding [4]: binds
B2: heterogeneous nuclear ribonucleoprotein R (hnRNP R) (protein, UniProt Q8VHM5 1-632)
chain: T1 sequence
- binding [3]: no binding (only somatodendritic compartment lysate)
